Measured data: PubChem BioAssay AID1259254 (NCATS, 2017)

Test: 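Gene knock-downs that lead to re-replication, shown by excess G2 DNA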 (primary screen)
Cell system: human HCT116 colorectal cancer cells
Reagent: single siRNA against human genes
Duration: 3 days
Measured: 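Imaged Hoechst DNA stain sorts each cell into a cycle phase by DNA amount; per plate, G2 fraction set to 0% for non-targeting and 100% for GMNN siRNA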
Scale: G2 robust z-score: higher = more G2 cells, more excess DNA replication
Active means: 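An siRNA counts as active if its G2 robust z-score lies at least 5 MADs above the screen median; here such calls match roughly 38% of GMNN control or more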
Here is one part, drawn at random, of about 59,000 deposited reagents. In the full data, about 1,550 (2.6%) are marked active. 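G2 share is only a proxy for re-replication; each gene was hit by three separate siRNAs, and active genes were retested.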 The numbers tell different reagents against one gene apart. Not all columns of the deposit are shown. The record does not give: the amount of reagent.

gene symbol,reagent,G2 robust z-score,outcome
PTPRG (protein tyrosine phosphatase receptor type G),1,0.139,inactive
PTPRG (protein tyrosine phosphatase receptor type G),2,-0.697,inactive
PTPRG (protein tyrosine phosphatase receptor type G),3,-0.873,inactive
HOXB5 (homeobox B5),1,4.49,inactive
HOXB5 (homeobox B5),2,-0.835,inactive
HOXB5 (homeobox B5),3,0.576,inactive
FKBP5 (FKBP prolyl isomerase 5),1,1.94,inactive
FKBP5 (FKBP prolyl isomerase 5),2,-0.977,inactive
FKBP5 (FKBP prolyl isomerase 5),3,-0.763,inactive
TACC1 (transforming acidic coiled-coil containing protein 1),1,3.78,inactive
TACC1 (transforming acidic coiled-coil containing protein 1),2,6.07,active
TACC1 (transforming acidic coiled-coil containing protein 1),3,-0.445,inactive
FXYD4 (FXYD domain containing ion transport regulator 4),1,-0.143,inactive
FXYD4 (FXYD domain containing ion transport regulator 4),2,1.39,inactive
FXYD4 (FXYD domain containing ion transport regulator 4),3,1.41,inactive
KRT2 (keratin 2),1,0.99,inactive
KRT2 (keratin 2),2,0.347,inactive
KRT2 (keratin 2),3,1.06,inactive
SMAD5 (SMAD family member 5),1,-0.777,inactive
SMAD5 (SMAD family member 5),2,0.158,inactive
SMAD5 (SMAD family member 5),3,0.16,inactive
NDOR1 (NADPH dependent diflavin oxidoreductase 1),1,0.703,inactive
NDOR1 (NADPH dependent diflavin oxidoreductase 1),2,-0.494,inactive
NDOR1 (NADPH dependent diflavin oxidoreductase 1),3,0.917,inactive
NDOR1 (NADPH dependent diflavin oxidoreductase 1),4,0.776,inactive
NDOR1 (NADPH dependent diflavin oxidoreductase 1),5,0.621,inactive
NDOR1 (NADPH dependent diflavin oxidoreductase 1),6,-0.288,inactive
CLEC1B (C-type lectin domain family 1 member B),1,1.12,inactive
CLEC1B (C-type lectin domain family 1 member B),2,1.11,inactive
CLEC1B (C-type lectin domain family 1 member B),3,0.189,inactive
KIF22 (kinesin family member 22),1,3.13,inactive
KIF22 (kinesin family member 22),2,-1.1,inactive
KIF22 (kinesin family member 22),3,0.0562,inactive
MTMR1 (myotubularin related protein 1),1,-0.383,inactive
MTMR1 (myotubularin related protein 1),2,2.34,inactive
MTMR1 (myotubularin related protein 1),3,0.709,inactive
JRK (Jrk helix-turn-helix protein),1,0.00114,inactive
JRK (Jrk helix-turn-helix protein),2,-0.807,inactive
JRK (Jrk helix-turn-helix protein),3,1.1,inactive
PFN1P3 (profilin 1 pseudogene 3),1,1.65,inactive
PFN1P3 (profilin 1 pseudogene 3),2,-0.309,inactive
PFN1P3 (profilin 1 pseudogene 3),3,0.804,inactive
NIPBL-DT (NIPBL divergent transcript),1,0.24,inactive
NIPBL-DT (NIPBL divergent transcript),2,0.371,inactive
NIPBL-DT (NIPBL divergent transcript),3,-0.247,inactive
PPP1R42 (protein phosphatase 1 regulatory subunit 42),1,0.538,inactive
PPP1R42 (protein phosphatase 1 regulatory subunit 42),2,-0.725,inactive
PPP1R42 (protein phosphatase 1 regulatory subunit 42),3,4.29,inactive
TSPYL2 (TSPY like 2),1,-0.825,inactive
TSPYL2 (TSPY like 2),2,-0.567,inactive
TSPYL2 (TSPY like 2),3,1.47,inactive
ZNF329 (zinc finger protein 329),1,-0.346,inactive
ZNF329 (zinc finger protein 329),2,-0.546,inactive
ZNF329 (zinc finger protein 329),3,0.758,inactive
NUDT7 (nudix hydrolase 7),1,0.311,inactive
NUDT7 (nudix hydrolase 7),2,0.698,inactive
NUDT7 (nudix hydrolase 7),3,-0.399,inactive
CCNP (cyclin P),1,3.84,inactive
CCNP (cyclin P),2,0.794,inactive
CCNP (cyclin P),3,-0.537,inactive
ID1 (inhibitor of DNA binding 1),1,0.17,inactive
ID1 (inhibitor of DNA binding 1),2,-0.661,inactive
ID1 (inhibitor of DNA binding 1),3,-0.266,inactive
AURKA (aurora kinase A),1,2.17,inactive
AURKA (aurora kinase A),2,5.53,active
AURKA (aurora kinase A),3,6.86,active
ITGB6 (integrin subunit beta 6),1,-0.696,inactive
ITGB6 (integrin subunit beta 6),2,0.142,inactive
ITGB6 (integrin subunit beta 6),3,3.19,inactive
SLIRP (SRA stem-loop interacting RNA binding protein),1,-1.35,inactive
SLIRP (SRA stem-loop interacting RNA binding protein),2,-0.602,inactive
SLIRP (SRA stem-loop interacting RNA binding protein),3,-0.144,inactive
FZD2 (frizzled class receptor 2),1,0.0192,inactive
FZD2 (frizzled class receptor 2),2,-1.32,inactive
FZD2 (frizzled class receptor 2),3,-0.759,inactive
ZBED5-AS1 (ZBED5 antisense RNA 1),1,0.209,inactive
ZBED5-AS1 (ZBED5 antisense RNA 1),2,-0.81,inactive
ZBED5-AS1 (ZBED5 antisense RNA 1),3,0.00227,inactive
KRT6A (keratin 6A),1,-1.1,inactive
KRT6A (keratin 6A),2,-1.11,inactive
KRT6A (keratin 6A),3,0.169,inactive
SHISA9 (shisa family member 9),1,0.135,inactive
SHISA9 (shisa family member 9),2,-0.118,inactive
SHISA9 (shisa family member 9),3,1.07,inactive
SHISA9 (shisa family member 9),4,-0.471,inactive
SHISA9 (shisa family member 9),5,2.95,inactive
SHISA9 (shisa family member 9),6,0.168,inactive

Sorted by “G2 robust z-score” (high to low): some entries from above
gene symbol,reagent,G2 robust z-score,outcome
MTMR1 (myotubularin related protein 1),2,2.34,inactive
PFN1P3 (profilin 1 pseudogene 3),1,1.65,inactive
JRK (Jrk helix-turn-helix protein),3,1.1,inactive
PFN1P3 (profilin 1 pseudogene 3),3,0.804,inactive
MTMR1 (myotubularin related protein 1),3,0.709,inactive
NIPBL-DT (NIPBL divergent transcript),2,0.371,inactive
NIPBL-DT (NIPBL divergent transcript),1,0.24,inactive
KIF22 (kinesin family member 22),3,0.0562,inactive
JRK (Jrk helix-turn-helix protein),1,0.00114,inactive
NIPBL-DT (NIPBL divergent transcript),3,-0.247,inactive
PFN1P3 (profilin 1 pseudogene 3),2,-0.309,inactive
MTMR1 (myotubularin related protein 1),1,-0.383,inactive
JRK (Jrk helix-turn-helix protein),2,-0.807,inactive
KIF22 (kinesin family member 22),2,-1.1,inactive
